A weaker result is weaker than the reference pair of the same experiment. For some of these results: Tags and fusion partners may be left off the protein sequences shown. For some of these results: The exact form of at least one protein or probe is not confirmed.
Assays:
[1] = biological target: Hrp48-RRM12 (Drosophila melanogaster) (UniProt P48809); experiment: ITC; details: residues 1-173
[2] = biological target: Hrp48-RRM1 (Drosophila melanogaster) (UniProt P48809); experiment: NMR; details: fast exchange, residues 1-88
[3] = biological target: T1, Hrp48-RRM2 (Drosophila melanogaster) (UniProt P48809); experiment: NMR; details: weak; residues 89-173
T1 sequence (looked up): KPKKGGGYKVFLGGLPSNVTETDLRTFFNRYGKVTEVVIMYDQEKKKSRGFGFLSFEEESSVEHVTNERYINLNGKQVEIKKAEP

By UniProt entry, the sequences of proteins in these tests, tags left out. Residues count along the entry.
UniProt P48809, 1-88: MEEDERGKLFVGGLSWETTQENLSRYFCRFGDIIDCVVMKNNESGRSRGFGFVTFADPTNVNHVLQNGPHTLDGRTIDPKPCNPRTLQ

[4] = biological target: Hrp48-RRM12 (Drosophila melanogaster) (UniProt P48809); experiment: NMR; details: strong interaction not confirmed; residues 1-173

Sequence: UAGGCCUAAG [10-mer-CC]
- binding result ([1]; fit not feasible): binds more weakly

Sequence: AACCUA [6-mer-1]
- binding result [2]: binds more weakly

Sequence: UUUUUU [6-mer-5 (U6)]
- binding result ([2]; weak affinity): binds more weakly
- binding result [3]: binds more weakly

Sequence: AACCUAGG [Region 5]
- binding result ([1]; strong interaction not confirmed): binds more weakly
- binding result [4]: binds more weakly

Sequence: AAGAAC [6-mer-4]
- binding result [2]: binds more weakly
